Laboratory results: publication PMC11749100
The exact form of at least one protein or probe is not confirmed. A negative result means that nothing was seen under these conditions.

Test system: p65 (NF-kB) + PPARγ
Test: EMSA
Conditions: p65 and PPARγ incubated together with probe, no shifted band, PPARγ proposed to compete with probe for p65; Beyotime GS009 EMSA kit; 1 uL protein + 2 uL DNA, 20 min at room temperature; 4% non-denaturing PAGE; salt and pH not stated; recombinant protein; protein details: His (pET-21b(+))

**Q.** Does “GTCTTTTGTGGAAACTCCCCAAG (double strand) [CCL5 promoter probe]” bind?
**A.** no binding
